Source: paper PMC7326492 (eLife, 2020)
These are yes or no findings as the source states them, for the method shown. For part of these data: In cells and extracts the contact can be indirect. Some binding calls cover weakened binding; strength is not graded here. For part of these data: Tags and fused reporters may be left off the sequences shown. Blank lines part the entries; values can stand above or below the molecule they belong to.

By UniProt entry, the sequences of proteins in these tests, tags left out. Residues count along the entry.
UniProt P22004, residues 375-513: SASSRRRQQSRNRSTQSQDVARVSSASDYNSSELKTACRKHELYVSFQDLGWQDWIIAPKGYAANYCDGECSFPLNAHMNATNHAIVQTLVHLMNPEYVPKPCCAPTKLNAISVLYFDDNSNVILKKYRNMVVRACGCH

Columns and labels:
ACVR1-Fc [1] = target: T1, ACVR1-Fc (UniProt Q04771); experiment: SPR; 1000 RU of either ACVR1B-Fc or ACVR1-Fc captured on a sensor chip; ligands injected at 80 nM (A) or 1 μM (B); both purified
T1 sequence: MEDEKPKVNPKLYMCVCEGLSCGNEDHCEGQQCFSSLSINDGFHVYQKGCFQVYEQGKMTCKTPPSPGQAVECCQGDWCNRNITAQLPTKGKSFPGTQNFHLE

ACVR1-Fc [2] = target: T1, ACVR1-Fc; experiment: SPR; complexes of ligand•type II receptor extracellular domain formed at 1:2.5 ratio and injected over captured ACVR1B-Fc and ACVR1-Fc; both purified
TGFBR1, P36897 = target: T2, TGFBR1, P36897; experiment: split reporter; U2OS cells (DiscoverX) expressing split beta-galactosidase fusions of a type I and a type II receptor; dose response of ligand, 16 hr; luminescence, read by the paper as type I receptor binding of the ligand; only the binder purified; conditions: remark: other sources report otherwise
T2 chain: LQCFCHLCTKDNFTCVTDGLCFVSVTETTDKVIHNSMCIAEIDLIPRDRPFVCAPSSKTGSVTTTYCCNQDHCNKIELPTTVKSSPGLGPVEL

TGFBR1 = target: T3, TGFBR1 (UniProt P36897); experiment: as above
T3 sequence: T2 chain

ACVR1 = target: T4, ACVR1 (UniProt Q04771); experiment: as above
T4 sequence: T1 sequence

ACVR1-Fc, Q04771 = target: T5, ACVR1-Fc, Q04771; experiment: SPR; 1000 RU of either ACVR1B-Fc or ACVR1-Fc captured on a sensor chip; ligands injected at 80 nM (A) or 1 μM (B); both purified; conditions: remark: other sources report otherwise
T5 chain: T1 sequence

Molecule: Activin A•ACVR2B (from UniProt P08476 311-426; Q13705 19-137) (complex)
binding (ACVR1-Fc [2]): no binding

Molecule: Activin A•ACVR2A (from UniProt P08476 311-426; P27037 20-135) (complex)
binding (ACVR1-Fc [2]): no binding

Molecule: Activin A•BMPR2 (from UniProt P08476 311-426; Q13873 27-150) (complex)
binding (ACVR1-Fc [2]): no binding

B1: Activin B (ligand, UniProt P09529 293-407)
chain: GLECDGRTNLCCRQQFFIDFRLIGWNDWIIAPTGYYGNYCEGSCPAYLAGVPGSASSFHTAVVNQYRMRGLNPGTVNSCCIPTKLSTMSMLYFDDEYNIVKRDVPNMIVEECGCA
binding (ACVR1-Fc [1]): no binding (tested: 80 nM (A) or 1 μM (B))

B3: Activin A.∆D406 (ligand, human, UniProt P08476 311-426, looked up)
chain: GLECDGKVNICCKKQFFVSFKDIGWNDWIIAPSGYHANYCEGECPSHIAGTSGSSLSFHSTVINHYRMRGHSPFANLKSCCVPTKLRPMSMLYYDGQNIIKKDIQNMIVEECGCS
notes: also called ActA.ΔD406; source: CHO-K1 cells expressing human Furin, stably expressed, purified (heparin, size exclusion, C4 reverse phase)
binding (TGFBR1): binds
binding (ACVR1): binds weakly

B5: BMP4 (ligand, UniProt P12644 293-408)
chain: SPKHHSQRARKKNKNCRRHSLYVDFSDVGWNDWIVAPPGYQAFYCHGDCPFPLADHLNSTNHAIVQTLVNSVNSSIPKACCVPTELSAISMLYLDEYDKVVLKNYQEMVVEGCGCR
binding (ACVR1-Fc [1]): no binding (tested: 80 nM (A) or 1 μM (B))

B7: BMP10 (ligand, UniProt O95393 317-424)
chain: NAKGNYCKRTPLYIDFKEIGWDSWIIAPPGYEAYECRGVCNYPLAEHLTPTKHAIIQALVHLKNSQKASKACCVPTKLEPISILYLDKGVVTYKFKYEGMAVSECGCR
binding (ACVR1-Fc [1]): no binding (tested: 80 nM (A) or 1 μM (B))

The remaining lines, values ahead:

binding (ACVR1-Fc [1]): binds
Molecule: BMP6 (from UniProt P22004 375-513) (ligand)

binding (TGFBR1, P36897): binds
B2: Activin A (ligand, human, UniProt P08476 311-426, looked up)
chain: GLECDGKVNICCKKQFFVSFKDIGWNDWIIAPSGYHANYCEGECPSHIAGTSGSSLSFHSTVINHYRMRGHSPFANLKSCCVPTKLRPMSMLYYDDGQNIIKKDIQNMIVEECGCS
notes: Activin A (inhibin beta A chain), human, mature region cloned downstream of the mouse Inhba pro-peptide; the mature dimer was isolated; rhActivin A from R and D Systems is named only for the in vivo implants; also called wild-type Activin A; Activin A WT; source: CHO-K1 cells expressing human Furin, stably expressed, purified (heparin, size exclusion, C4 reverse phase)

binding (ACVR1-Fc, Q04771): binds
B4: BMP9, Q9UK05 320-429 (ligand)
chain: SAGAGSHCQKTSLRVNFEDIGWDSWIIAPKEYEAYECKGGCFFPLADDVTPTKHAIVQTLVHLKFPTKVGKACCVPTKLSPISVLYKDDMGVPTLKYHYEGMSVAECGCR

binding (ACVR1-Fc, Q04771): binds
B6: BMP7, P18075 293-431 (ligand)
chain: STGSKQRSQNRSKTPKNQEALRMANVAENSSSDQRQACKKHELYVSFRDLGWQDWIIAPEGYAAYYCEGECAFPLNSYMNATNHAIVQTLVHFINPETVPKPCCAPTQLNAISVLYFDDSSNVILKKYRNMVVRACGCH
